From article PMC6731589
No constants are given. Whether binding was seen depends on the method and setting. Some entries that bind do so weakly or less than the wild type.

Chains of the proteins cited; added tags and fusions are not shown. Lines headed by an entry give the natural chain unless they say otherwise; changes in a name come on top.
UniProt Q9WV92: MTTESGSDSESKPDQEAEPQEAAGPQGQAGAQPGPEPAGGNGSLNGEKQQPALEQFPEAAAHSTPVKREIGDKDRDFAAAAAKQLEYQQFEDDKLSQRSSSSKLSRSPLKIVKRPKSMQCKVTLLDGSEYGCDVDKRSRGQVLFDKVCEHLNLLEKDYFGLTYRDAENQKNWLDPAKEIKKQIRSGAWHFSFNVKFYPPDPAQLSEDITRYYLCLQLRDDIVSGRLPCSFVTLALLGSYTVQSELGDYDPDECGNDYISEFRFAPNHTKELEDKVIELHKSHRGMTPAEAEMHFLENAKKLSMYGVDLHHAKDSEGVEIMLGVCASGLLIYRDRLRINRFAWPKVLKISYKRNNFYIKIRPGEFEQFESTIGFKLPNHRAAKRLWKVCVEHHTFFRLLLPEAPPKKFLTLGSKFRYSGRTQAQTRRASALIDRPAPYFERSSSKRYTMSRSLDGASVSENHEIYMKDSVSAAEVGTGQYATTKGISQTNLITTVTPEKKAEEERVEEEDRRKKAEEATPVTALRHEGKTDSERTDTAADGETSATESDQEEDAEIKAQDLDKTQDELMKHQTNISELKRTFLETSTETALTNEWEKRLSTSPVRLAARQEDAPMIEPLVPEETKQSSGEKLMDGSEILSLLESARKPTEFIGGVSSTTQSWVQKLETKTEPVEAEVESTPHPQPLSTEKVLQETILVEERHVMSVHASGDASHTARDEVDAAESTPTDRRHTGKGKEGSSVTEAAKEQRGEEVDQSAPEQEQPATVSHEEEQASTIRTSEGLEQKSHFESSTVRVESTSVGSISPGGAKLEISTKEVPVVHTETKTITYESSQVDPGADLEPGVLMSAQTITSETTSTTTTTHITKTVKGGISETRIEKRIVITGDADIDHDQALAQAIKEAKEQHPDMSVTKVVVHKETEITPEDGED

Target: T1, biotinylated EGFR P13 peptide (initial 13 amino acids of the intracellular JM segment)
T1 sequence (peptide, biotin (position not stated)): RRRHIVRKRTLRR
Assay: pull-down; biotinylated EGFR P13 peptides on immobilized streptavidin beads, 4.1B protein or GST-tagged 4.1B domains added, 100 μl, coupled protein 2 μM, 1 h at room temperature, western blot (anti-GST antibody for the GST-tagged domains); both purified

binding	Substance
binds	His-tagged 4.1B (the 4.1B 130-kDa protein) (from UniProt Q9WV92 1-929)
binds	GST-tagged FERM domain of 4.1B (from UniProt Q9WV92 118-399) (domain or fragment)
